PubChem BioAssay AID1259308 – NCATS – 2017
In all, the deposit lists about 59,000 reagents; shown is a random part of them. About 1,510 of all reagents (2.6%) count as active. 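Calls use total luciferase alone and ignore viability, so some active siRNAs may act by altering cell number.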 Unmarked entries are inactive. Further read-outs or replicates are left out here.

Test: 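Genes whose loss raises luciferase production in HEK293 cells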 (primary screen)
Cells: human HEK293 embryonic kidney cells stably expressing firefly luciferase (HEK-CMV-Luc2-Hygro)
Reagent: single siRNA against human genes, 0.8 pmol siRNA per well
Duration: 72 h
Read-out: 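Reporter luminescence and viable-cell signal on separate replicate plates, given as percent of non-targeting control and median/MAD z-scores, plus per-cell luciferase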
Direction: total luciferase, z-score and total luciferase, % of control: higher = more reporter protein produced
Rule for the call: 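Active when the median/MAD z-score for overall luciferase is greater than 3; a gene was taken forward for validation with new siRNAs if at least two of its three siRNAs passed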
Meaning of the calls: active = raised luciferase; inactive = no rise

gene knocked down | PubChem SID | total luciferase, z-score | total luciferase, % of control
CERS5 | SID160753871 | -0.439 | 73.2
CERS5 | SID160753872 | 0.924 | 100
CERS5 | SID160753873 | -0.488 | 72.2
RPS6KA5 | SID160721816 | -2.49 | 32.4
RPS6KA5 | SID160721817 | -0.582 | 70.3
RPS6KA5 | SID160721818 | 0.00878 | 82.1
SAT1 | SID160716348 | -0.233 | 77.2
SAT1 | SID160716349 | -0.0951 | 80
SAT1 | SID160716350 | 0.529 | 92.4
PLA2G12A | SID160731970 | -1.38 | 54.5
PLA2G12A | SID160750857 | 0.295 | 87.8
PLA2G12A | SID160750858 | 1.57 | 113
PLXDC2 | SID160752885 | -1.95 | 43
PLXDC2 | SID160752886 | -0.814 | 65.7
PLXDC2 | SID160752887 | 0.1 | 83.9
ZNF528 | SID160752236 | 0.886 | 99.5
ZNF528 | SID160752237 | 0.196 | 85.8
ZNF528 | SID160752238 | 0.643 | 94.7
TMEM98 | SID160737472 | -0.368 | 74.6
TMEM98 | SID160737473 | -0.707 | 67.8
TMEM98 | SID160737474 | 0.133 | 84.5
SIRPA | SID160730634 | -0.977 | 62.5
SIRPA | SID160757941 | 0.0457 | 82.8
SIRPA | SID160757942 | -1.34 | 55.2
NCOA4 | SID160719574 | 0.115 | 84.2
NCOA4 | SID160719575 | 1.81 | 118
NCOA4 | SID160719576 | 0.564 | 93.1
UQCRHL | SID160767807 | 1.07 | 103
UQCRHL | SID160767808 | -0.219 | 77.5
UQCRHL | SID160767810 | 0.356 | 89
CITED2 | SID160728273 | -0.495 | 72
CITED2 | SID160730430 | -0.141 | 79.1
CITED2 | SID160730432 | 0.308 | 88
NT5E | SID160778254 | -1.33 | 55.4
NT5E | SID160778255 | -0.539 | 71.2
NT5E | SID160778256 | -0.365 | 74.6
PRMT2 | SID160775322 | 0.273 | 87.3
PRMT2 | SID160775323 | 1.42 | 110
PRMT2 | SID160775324 | -0.569 | 70.6
LOC728145 (retired record) | SID160771522 | 0.126 | 84.4
LOC728145 (retired record) | SID160771524 | 0.642 | 94.6
LOC728145 (retired record) | SID160771525 | -0.671 | 68.5
CARD11 | SID160752229 | 0.462 | 91.1
CARD11 | SID160752230 | 1.23 | 106
CARD11 | SID160752231 | -1.19 | 58.2
TERB2 | SID160758264 | 2.56 | 133
TERB2 | SID160758265 | -0.403 | 73.9
TERB2 | SID160758266 | 0.878 | 99.4
POU6F2 | SID160730359 | -0.412 | 73.7
POU6F2 | SID160730360 | -1.01 | 61.8
POU6F2 | SID160730533 | 2.24 | 127
LYPLAL1 | SID160756562 | -0.21 | 77.7
LYPLAL1 | SID160756564 | 0.17 | 85.3
LYPLAL1 | SID160756565 | 0.174 | 85.3
TARP | SID160733446 | -1.1 | 60
TARP | SID160768211 | -1.22 | 57.7
TARP | SID160768212 | 1.24 | 107
RPS4X | SID160716135 | -2.86 | 24.9
RPS4X | SID160716136 | -2.15 | 39.1
RPS4X | SID160733718 | -2.69 | 28.3
CCDC186 | SID160742908 | -0.218 | 77.6
CCDC186 | SID160742909 | -1.83 | 45.5
CCDC186 | SID160742910 | -0.213 | 77.7
RAD21 | SID160715587 | 0.0899 | 83.7
RAD21 | SID160715588 | -1.15 | 58.9
RAD21 | SID160715589 | -0.898 | 64
PTOV1 | SID160741446 | 0.802 | 97.8
PTOV1 | SID160741447 | 0.0903 | 83.7
PTOV1 | SID160741449 | 0.744 | 96.7
DGUOK | SID160754033 | -0.168 | 78.5
DGUOK | SID160754043 | -1.77 | 46.6
DGUOK | SID160754053 | -0.846 | 65.1
SLC6A16 | SID160738891 | 0.416 | 90.2
SLC6A16 | SID160738892 | -0.651 | 68.9
SLC6A16 | SID160738893 | -0.0496 | 80.9

Look-ups from the list.
Under “total luciferase, z-score”, RPS4X [SID160716136] shows -2.15
Under “total luciferase, z-score”, SIRPA [SID160757941] reads 0.0457
For “total luciferase, z-score”, CITED2 [SID160728273] shows -0.495
For “total luciferase, % of control”, SIRPA [SID160730634] reads 62.5
For “total luciferase, z-score”, TARP [SID160768211] shows -1.22
Entry of SAT1 [SID160716349] under “total luciferase, z-score”: -0.0951
